Results deposited as PubChem BioAssay AID1259425 (University of Nebraska Medical Center, 2018)
Test: 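Seek colon cancer weak points whose silencing resembles KSR1 loss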 (primary screen). Cells: HCT116 human colon cancer cells. Reagent: siRNA pool against human genes, 50 nM siRNA. Detection: 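mRNA of six signature genes measured together by branched-DNA assay after 50 nM siRNA pool, blank removed, divided by geometric mean of two housekeeping genes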. Direction: BNIP3L mRNA: higher = more BNIP3L transcript after knockdown.
Here is one part, drawn at random, of about 14,000 deposited reagents. Further read-outs or replicates are left out here. Not given: the time to read-out.

{"Gene":"BSCL2 (GeneID 26580)","BNIP3L mRNA, set 1":0.0806}
{"Gene":"PTMS (GeneID 5763)","BNIP3L mRNA, set 1":0.096}
{"Gene":"PMS1 (GeneID 5378)","BNIP3L mRNA, set 1":0.0461}
{"Gene":"SYNJ2 (GeneID 8871)","BNIP3L mRNA, set 1":0.142}
{"Gene":"B3GALNT1 (GeneID 8706)","BNIP3L mRNA, set 1":0.0937}
{"Gene":"CCL1 (GeneID 6346)","BNIP3L mRNA, set 1":0.134}
{"Gene":"TMED2 (GeneID 10959)","BNIP3L mRNA, set 1":0.117}
{"Gene":"XPC (GeneID 7508)","BNIP3L mRNA, set 1":0.0938}
{"Gene":"OSER1 (GeneID 51526)","BNIP3L mRNA, set 1":0.157}
{"Gene":"LIF (GeneID 3976)","BNIP3L mRNA, set 1":0.107}
{"Gene":"TLE2 (GeneID 7089)","BNIP3L mRNA, set 1":0.112}
{"Gene":"WDR45 (GeneID 11152)","BNIP3L mRNA, set 1":0.0454}
{"Gene":"TANK (GeneID 10010)","BNIP3L mRNA, set 1":0.0731}
{"Gene":"SPTBN4 (GeneID 57731)","BNIP3L mRNA, set 1":0.38}
{"Gene":"SLC7A6OS (GeneID 84138)","BNIP3L mRNA, set 1":0.382}

Sorted by “BNIP3L mRNA, set 1” (highest first): 2 of the entries above.
{"Gene":"TMED2 (GeneID 10959)","BNIP3L mRNA, set 1":0.117}
{"Gene":"XPC (GeneID 7508)","BNIP3L mRNA, set 1":0.0938}

Further entries follow:
{"Gene":"IL24 (GeneID 11009)","BNIP3L mRNA, set 1":0.065}
{"Gene":"SLC12A7 (GeneID 10723)","BNIP3L mRNA, set 1":0.205}
{"Gene":"GTPBP3 (GeneID 84705)","BNIP3L mRNA, set 1":0.187}
{"Gene":"PPARD (GeneID 5467)","BNIP3L mRNA, set 1":0.09}
{"Gene":"GYPE (GeneID 2996)","BNIP3L mRNA, set 1":0.075}
{"Gene":"TIAM1 (GeneID 7074)","BNIP3L mRNA, set 1":0.0584}
{"Gene":"SERF2 (GeneID 10169)","BNIP3L mRNA, set 1":0.0475}
{"Gene":"PTPN20 (GeneID 26095)","BNIP3L mRNA, set 1":0.103}
{"Gene":"CKAP5 (GeneID 9793)","BNIP3L mRNA, set 1":0.178}
{"Gene":"MAP6D1 (GeneID 79929)","BNIP3L mRNA, set 1":0.207}
{"Gene":"KYAT1 (GeneID 883)","BNIP3L mRNA, set 1":0.0419}
{"Gene":"MUS81 (GeneID 80198)","BNIP3L mRNA, set 1":0.186}
{"Gene":"ACVR2B (GeneID 93)","BNIP3L mRNA, set 1":0.0815}
